Test results reported in patent US20260132217A1 (UNIVERSITE D AIX MARSEILLE, published 2026).
Results are given in words; binding and its absence hold for the method and conditions named. Some entries that bind do so weakly or less than the wild type.

Molecular target: T1, soluble CD146 (sCD146), recombinant human sCD146 (human) (UniProt P43121)
T1 sequence (FITC label in the cell-binding experiments (sCD146-FITC); site not stated, looked up): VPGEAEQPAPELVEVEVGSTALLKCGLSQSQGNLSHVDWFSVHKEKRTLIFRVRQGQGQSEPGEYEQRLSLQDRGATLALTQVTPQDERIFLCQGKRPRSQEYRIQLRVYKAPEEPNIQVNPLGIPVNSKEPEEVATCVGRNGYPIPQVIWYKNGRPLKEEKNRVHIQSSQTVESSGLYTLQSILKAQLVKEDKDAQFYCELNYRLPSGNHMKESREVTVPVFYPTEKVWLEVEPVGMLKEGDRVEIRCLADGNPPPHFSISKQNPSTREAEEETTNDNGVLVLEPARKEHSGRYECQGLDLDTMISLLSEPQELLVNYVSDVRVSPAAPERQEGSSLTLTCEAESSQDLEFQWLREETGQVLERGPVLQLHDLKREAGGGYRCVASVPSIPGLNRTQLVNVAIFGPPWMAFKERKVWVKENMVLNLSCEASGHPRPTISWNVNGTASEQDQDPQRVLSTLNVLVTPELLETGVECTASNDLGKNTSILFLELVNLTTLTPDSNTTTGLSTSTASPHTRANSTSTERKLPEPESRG
Assay: in-house ELISA, inhibition of the sCD146-integrin αvβ3 interaction

B1: mucizumab, humanized IgG1 monoclonal anti-sCD146 antibody (antibody, V domains shown)
VH: QVKLVESGGGVVQPGRSLTLSCAASGFTFSDYGMHWIRQAPGKGLEWIAMIYYDSSKMYYADTVKGRFTISRDNSKNTLYLQMNSLRAEDTAVYYCAAFQFDYWGQGTMVTVSS
VL: EIVLTQSPDFQSVTPKEKVTITCRASQGISTSIYWYQQKPDQSPKLLIKFASQSISGVPSRFSGSGSGTDFTLTINRVEAEDAATYYCQQSYNLPYTFGAGTKLEIKR
For B1, the binding was “binds”.
